The text below walks through data of PMC9634086.

The exact form of at least one protein or probe is not confirmed. Protein sequences can lack the tags named with them.

For the data set, the system named is T1, ArcA (Dickeya oryzae EC1).
T1 sequence (looked up): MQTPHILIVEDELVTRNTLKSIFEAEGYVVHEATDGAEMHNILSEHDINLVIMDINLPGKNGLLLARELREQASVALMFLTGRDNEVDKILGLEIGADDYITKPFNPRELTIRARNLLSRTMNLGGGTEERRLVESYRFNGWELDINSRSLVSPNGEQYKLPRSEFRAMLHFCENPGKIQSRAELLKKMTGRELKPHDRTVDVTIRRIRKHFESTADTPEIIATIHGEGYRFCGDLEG
The experiment in a line: EMSA. Particulars: recombinant protein, residues 1-238, protein details: His (pET32a), probe letters rebuilt from the primers and the genome.

Where [1] appears, read: 0.5 uM ArcB (no TM segments) added, enhanced affinity, ArcA 0.3-1.2 uM, […], binding buffer, pH and temperature not given, label: 3' biotin (Fig 8A), unlabeled (Fig 8B).
Setting [2] is: 1-6 uM ArcA, 100x unlabeled competitor, […], binding buffer, pH and temperature not given, label: 3' biotin (Fig 8A), unlabeled (Fig 8B).
[3] abbreviates: 1-6 uM ArcA, 100x unlabeled competitor, EMSA: 20 fmol biotin-labeled DNA, 0/1/3/6 uM ArcA, 10 ul, 6% native PAGE in TBE, 0-1.2 uM ArcA or ArcA-deltaREC, 0.5 uM ArcB, 5% native PAGE in TAE, label: 3' biotin.
Where [4] appears, read: 1-6 uM ArcA, 100x unlabeled competitor, […], binding buffer, pH and temperature not given, label: 3' biotin.

For “ACCACCGCAAAGGTTCTTACCTGCTGCTCAATCAGACGGATAACCGTCGTGCAGTCAGCAGTCAGGTCACCTCGTTTGTTCAGCAACGCATGGCGGACAAACTGATAGGCAGTGTGCACCGCGATGAAAGCGTGGCGGAAGCCAATGCTTCACAACGCTCTATTTTTGATTTCAGCCCGGTGTCTGCCGCTGCATTTGATATCGAACTGATTGGAAAGCGCGTTGCTGCGCTGCTGGATATTCGAATCGGGAATGGAGAAGTTCACGCCGATCTGCCAGCCTATCAGACTGTAATGAACCACTAGTCGCCGGTTCCGGCTATATTTGTGAAGAAATTGATATTCTCCGGCTGGTTTTCCCGGCACAAGGTGTGTGCGCGCAAATATTTTCCATCAATTAAATATCAGGATAATCGATG (double strand) [bcsA promoter]”, the binding result is listed as “binds” under setting [1] and “binds” under setting [2]. As to “AGTTCTGTCAGCTCTTTTTCTGTTTACGCAAGATTTTCAAAATATGCCTTCAACGCCTCCAGCTGTTCGCTGGCGTCCTCTATGGCGTTGAATGTGCGCCTAAACTGGTCGTTTGGGGCGTGCTCCTGGAGATACCAGGACACGTGCTTACGTGCTATACGAAATCCCTTGCCTGGACCATAAAAGTCGTGCAATTCCCGTATATGCCCGATCAACAAGTGCTTGACCTCTGCCAGTGGCAGGGGCGGCAGCAACTCCCCTGTGTCCAGATAATGCTGGATTTCCCGAAAGATCCAGGGTCTTCCCTGAGCAGCTCGTCCTATCATCAGGGCATCAGCCCCGGTGTAATCAAGAACCGCTCTGGCTTTGCGCGGGTCAGTAATGTCGCCATTCGCGATAACGGGAATGGAAACACTCTGC (double strand) [fis promoter]”, under setting [3], the binding result was “binds”. For the sequence “ATTCAGTGCTGCTGTGGTTTCAGCTATATTCATCATCGTGAAATATTTACCATTCAATATACTTAACGAATTCTCAGTAGTGGTGTTAGATATCTTTGTTGCCATGATTTCTGCCATTGTTGGTGTAATTATGGGCGTGCTCCGGGGAAGGACGATTGTATTATCAAAGAAGTGAAATAGGATTATGAATTTTCCTACGCCTATCCTGGTTATAATACCAAGGAGTAAGTTTAACAGTTATTAACAATAAAGCGGGTCATAGTGAGGTACATGGCTTCATGTTACCCAGGGATGGCTTTGCCTTTTGTGAGAGGGAATATATGTTAGGGAAGGATATATTGCACCTGAATAGCGGGGCAAGTGACATTGCAATTGTCGGA (double strand) [zmsA promoter]”, under setting [4], the binding result was “binds”.

Consider “CAACGAAGGCTGTTCTATTCCAATCGCCTTGGCAAGTTGAATTTGGGACTGCCCCGGGGGCAGTTGGTGAATATTATGCAGCGTGACCCAGTGAGTTTGAGTGAGCTCTAGAGGCTTCAATCGATGATCAATCAAAGCACGCCATACACGAACCAACCGAGCTAAATCAGAACCTAACGGCAATTCCATCACCTCTCCTTATAGTTAGCATACTAAGCAACTTCCCTGGATTGCAATCAACTCTGATTTAAAACGAAAGTTTTATAAAAAGGTCTTATTGTTATCTATCTATTCTAGCAAATAATAATTAATTAAAAATGATCTTGAACTTAATTTATGCCATTAAATATCACCATGTCGATTAAAACAGGGTCGGCT (double strand) [slyA promoter]”, for which the binding result by setting is: under setting [1], “binds”; under setting [2], “binds”. With “CACAAGCGGGTGCGTTTGAATGATCTCATTTTTTCTGTCCATAAATACCCCTTATTAACTAGTTACTACCGTGAGTGACTAAACGAGGTTTAAGACGGCTCTTGTACCTGAGCAATATCAGTATATCTCTGTCGGATTCATTTATGGAAATTAAATGTAAAAAAAACTCAAGTGGATGTTTCGATTAATTATCCAGCAAAATGAGCGCTGTGATTTGAACGAAAATAGTACAGTGCGTTAATGTAAGACGGCGAGGTAGTACGACATCTTACCGAAGAAACGAAAAGGTCAGACGAGATGTCTGACCATTGGGTAACCGGTGCGGATAGAAAAAGGAGATTACTCGCTTTGAACAAACCAGTCGTCAGCGCTTTCCCAAGTCTCTTGCAGGATTTCCGATATTTTCTCTCTGTCGTCTTTACTGCCGCCCAAAACGCTCAGGTTATTCGAGGCGGCATAA (double strand) [bssS promoter]”, the binding result under setting [4] is given as “binds”. “CATGTGACTCCTTTGAGTGGATTATATTCGCGATTTAAATCGCCAGATATTAAATCGTACACTATTTAATTGGTGGTAAAAAAACGCGTCCAATCAGCACGCGTTACATCATATCGACTCATCAAATATGTCTGATGAGGCTGGCTCGCAGCGTTTCCAAATCATGCTTGATAGCACGCAACTGCTCGATATTGCATTCTGACGCGCAGAACACACCTTCTGGTACGGCCTTCGCTTTGGTCTGCAATGCACGCCCGTCGTCGGTGAGCTCAATCAGCACCTGACGTTCGTCTTGCGTGCCACGACGGCGCGTCACCAACCCTGCGGTTTGCAGACGCTTAAGCAGCGGCGTCAGCGTGGCAGAATCCAGAAACAGACGCTCACCCAGTTCAG (double strand) [ohrR promoter]”: the binding result under setting [3] is recorded as “binds”.
